According to paper PMC3990521:
These are yes or no findings as the source states them, for the method shown. For some assays here: In cells and extracts the contact can be indirect. Some results given as binding are weak or reduced against the parent protein; the word gives no strength. Values belong to the molecule of their own block, whether it stands above or below them.

Amino acid sequences for entries named in this document (tags omitted).
UniProt Q03468: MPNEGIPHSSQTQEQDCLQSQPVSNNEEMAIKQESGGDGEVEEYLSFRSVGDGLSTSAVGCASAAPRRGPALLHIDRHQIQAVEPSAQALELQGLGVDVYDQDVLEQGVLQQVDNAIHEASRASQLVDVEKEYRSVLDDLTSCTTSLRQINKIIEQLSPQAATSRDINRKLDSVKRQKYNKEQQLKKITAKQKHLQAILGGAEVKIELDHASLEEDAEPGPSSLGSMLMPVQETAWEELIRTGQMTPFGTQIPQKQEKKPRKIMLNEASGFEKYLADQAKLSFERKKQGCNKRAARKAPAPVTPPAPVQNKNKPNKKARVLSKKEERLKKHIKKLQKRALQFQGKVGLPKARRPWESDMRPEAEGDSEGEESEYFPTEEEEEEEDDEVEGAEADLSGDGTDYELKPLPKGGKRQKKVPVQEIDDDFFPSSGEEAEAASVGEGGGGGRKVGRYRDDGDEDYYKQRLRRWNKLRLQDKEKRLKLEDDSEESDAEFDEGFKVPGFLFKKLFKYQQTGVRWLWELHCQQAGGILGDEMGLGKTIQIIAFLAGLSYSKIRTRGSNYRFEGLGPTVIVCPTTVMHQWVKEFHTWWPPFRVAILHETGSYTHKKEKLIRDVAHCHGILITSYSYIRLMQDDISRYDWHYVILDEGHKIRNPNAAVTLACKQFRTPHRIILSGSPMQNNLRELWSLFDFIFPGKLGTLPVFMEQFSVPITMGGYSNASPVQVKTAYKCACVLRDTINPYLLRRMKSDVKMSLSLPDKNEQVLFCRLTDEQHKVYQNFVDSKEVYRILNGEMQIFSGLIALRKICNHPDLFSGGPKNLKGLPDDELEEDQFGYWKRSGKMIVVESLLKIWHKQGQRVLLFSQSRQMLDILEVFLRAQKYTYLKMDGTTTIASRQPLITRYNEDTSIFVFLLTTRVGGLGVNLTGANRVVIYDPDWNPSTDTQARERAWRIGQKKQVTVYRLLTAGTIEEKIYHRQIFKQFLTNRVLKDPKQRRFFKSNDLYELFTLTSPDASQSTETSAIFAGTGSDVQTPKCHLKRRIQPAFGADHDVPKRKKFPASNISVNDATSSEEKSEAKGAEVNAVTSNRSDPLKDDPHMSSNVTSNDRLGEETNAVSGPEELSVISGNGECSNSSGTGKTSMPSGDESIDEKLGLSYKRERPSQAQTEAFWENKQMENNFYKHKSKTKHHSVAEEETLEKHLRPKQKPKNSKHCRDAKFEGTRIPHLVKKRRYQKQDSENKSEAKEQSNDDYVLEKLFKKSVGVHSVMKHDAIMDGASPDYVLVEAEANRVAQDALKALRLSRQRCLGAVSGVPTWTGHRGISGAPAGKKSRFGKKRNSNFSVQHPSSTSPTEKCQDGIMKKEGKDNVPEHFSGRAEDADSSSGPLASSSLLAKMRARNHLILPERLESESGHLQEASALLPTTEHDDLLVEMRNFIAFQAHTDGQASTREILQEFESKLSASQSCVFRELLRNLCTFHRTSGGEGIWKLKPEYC

Tests used:
[1] = target: Cockayne syndrome complementation B protein (CSB) (human) (UniProt Q03468); assay: co-IP; unfixed lysate of CS1AN cells expressing CSB in Buffer B60 (20 mM HEPES pH 7.9, 60 mM NaCl, 0.5% Triton X-100), chromatin removed by centrifugation; supernatant precipitated with monoclonal anti-CSB antibody 1B1 and protein G agarose at 4°C, four washes; beads-only control in parallel; western blot for c-Jun
[2] = target: Cockayne syndrome complementation B protein (CSB) (human), Q03468; assay: ChIP-western; cells pre-extracted in Buffer B (150 mM NaCl, 0.5% Triton X-100) to remove soluble CSB and c-Jun, pellet fixed with 1% formaldehyde 10 min, sonicated; chromatin immunoprecipitated with monoclonal anti-CSB antibody 1B1, cross-links reversed, western blot for c-Jun; details: remark: other sources report otherwise

binding [1]: binds weakly
Molecule: c-Jun (from UniProt P05412 1-331)

binding [2]: binds
B1: c-Jun, P05412 1-331 (protein)
chain: MTAKMETTFYDDALNASFLPSESGPYGYSNPKILKQSMTLNLADPVGSLKPHLRAKNSDLLTSPDVGLLKLASPELERLIIQSSNGHITTTPTPTQFLCPKNVTDEQEGFAEGFVRALAELHSQNTLPSVTSAAQPVNGAGMVAPAVASVAGGSGSGGFSASLHSEPPVYANLSNFNPGALSSGGGAPSYGAAGLAFPAQPQQQQQPPHHLPQQMPVQHPRLQALKEEPQTVPEMPGETPPLSPIDMESQERIKAERKRMRNRIAASKCRKRKLERIARLEEKVKTLKAQNSELASTANMLREQVAQLKQKVMNHVNSGCQLMLTQQLQTF
